The assay has as its target neuronal precursor cell-expressed developmentally down-regulated 4-1 (NEDD4-1), endogenous, in lysates of human cell lines (human) (UniProt P46934). Put plainly: immunoprecipitation with anti-NEDD4-1 antibody from cell lysates, tandem affinity purification and mass spectrometry (FIG. 1).

Results are given in words; binding and its absence hold for the method and conditions named. Binding seen in cells or lysates may run through a third protein. A yes stands for co-enrichment or nearness to the bait. Other partners may have been found.

B1: p34 protein (endogenous, in lysates of human cancer cell lines) (protein, UniProt Q9UHV2 1-236, looked up)
chain: MLSKGLKRKREEEEEKEPLAVDSWWLDPGHTAVAQAPPAVASSSLFDLSVLKLHHSLQQSEPDLRHLVLVVNTLRRIQASMAPAAALPPVPSPPAAPSVADNLLASSDAALSASMASLLEDLSHIEGLSQAPQPLADEGPPGRSIGGAAPSLGALDLLGPATGCLLDDGLEGLFEDIDTSMYDNELWAPASEGLKPGPEDGPGKEEAPELDEAELDYLMDVLVGTQALERPPGPGR
For B1, the binding entry was “binds”.

The values above are taken from patent US9752151B2, “Composition for treatment or metastasis suppression of cancers which includes p34 expression inhibitor or activity inhibitor as active ingredient” (THE ASAN FOUNDATION, priority 2013, dated 2017).
